Test [1] deals with T1, Stimulator of interferon genes protein (STING) (mouse (endogenous in L929)) (UniProt Q3TBT3).
T1 sequence: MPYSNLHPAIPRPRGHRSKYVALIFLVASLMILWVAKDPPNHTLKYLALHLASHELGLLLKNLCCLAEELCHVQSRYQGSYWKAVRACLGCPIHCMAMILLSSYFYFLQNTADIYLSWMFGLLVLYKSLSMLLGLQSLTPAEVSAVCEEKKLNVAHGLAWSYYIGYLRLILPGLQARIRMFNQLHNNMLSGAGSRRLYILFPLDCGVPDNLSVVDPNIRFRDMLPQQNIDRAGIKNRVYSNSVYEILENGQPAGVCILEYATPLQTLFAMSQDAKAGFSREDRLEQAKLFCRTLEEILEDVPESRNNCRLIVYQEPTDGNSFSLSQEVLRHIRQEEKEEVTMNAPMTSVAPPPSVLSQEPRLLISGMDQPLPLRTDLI
Put plainly: condition: only cells without the combined ML323 + S-cddA treatment; co-IP; as a1, the samples of L929 cells that did not get ML323 combined with S-cddA (either alone).

Test [2] has as its target T1, Stimulator of interferon genes protein (STING) (mouse (endogenous in L929)). The experiment in a line: co-IP; L929 cells stimulated with S-cddA (100 nM), ML323 (5 uM) or both for 1 or 2 h; IP lysis buffer; 1 mg/500 uL lysate with primary antibody overnight at 4 C, Protein A + G Agarose 4 h, TBS washes; Western blot.

Results are given in words; binding and its absence hold for the method and conditions named. Binding seen in cells or lysates may run through a third protein. Some binding calls cover weakened binding; strength is not graded here.

B1: SEC24C (protein, UniProt G3X972 1-1096)
chain: MNVNQSAPPVPPYGQNQPIYPGYHQSSYGGQPGPAAPATPYGAYNGPVPGYQQAPPQGVPRAPPSSGAPPASAAQVPCGQTTYGQFGQGDIQNGPSSTAQMQRVPGSQQFGPPLAPVVSQPAVLQPYGPPPTSTQVTAQLAGMQISGAVAQAPPPSGLGYGPPTSLASASGNFPNSGPYGSYPQSQAPPLSQAQGHPGVQPPLRSAPPLASSFTSPASGGPQMPSMTGLLPPGQGFGSLPVNQANHVSSPPAPALPPGTQMTGPPVPPPPPMHSPQQPGYQLQQNGSFGPARGPQPNYESPYPGAPTFGSQPGPPQPLPPKRLDPDAIPSPIQVIEDDRNNRGSEPFVTGVRGQVPPLVTTNFLVKDQGNASPRYIRCTSYNIPCTSDMAKQAQVPLAAVIKPLARLPPEEASPYVVDHGESGPLRCNRCKAYMCPLMTFIEGGRRFQCSFCSCVNDVPPQYFQHLDHTGKRVDAYDRPELSLGSYEFLATVDYCKNNKFPSPPAFIFMIDVSYNAIRTGLVRLLCEELKSLLDYLPREGGAEESAIRVGFVTYNKVLHFYNVKSSLAQPQMMVVSDVADMFVPLLDGFLVNVSESRAVITSLLDQIPEMFADTRETETVFAPVIQAGMEALKAAECAGKLFLFHTSLPIAEAPGKLKNRDDRKLINTDKEKTLFQPQTGTYQTLAKECVAQGCCVDLFLFPNQYVDVATLSVVPQLTGGSVYKYACFQVENDQERFLSDLRRDVQKVVGFDAVMRVRTSTGIRAVDFFGAFYMSNTTDVELAGLDGDKTVTVEFKHDDRLNEENGALLQCALLYTSCAGQRRLRIHNLALNCCTQLADLYRNCETDTLINYMAKFAYRAVLNSPVKTVRDTLITQCAQILACYRKNCASPSSAGQLILPECMKLLPVYLNCVLKSDVLQPGAEVTTDDRAYVRQLVSSMDVAETNVFFYPRLLPLTKSPLDSTAEPPAVRASEERLSSGDIYLLENGLNLFVWVGASVQQGVVQSLFNVSSFSQITSGLSVLPVLDNPLSKKVRGLIDSLRAQRMRYMKLIVVKQEDKLEMLFKHFLVEDKSLSGGASYVDFLCHMHKEIRQLLS
B1: the binding entry is on record as “no binding” in test [1] and “binds” in test [2].

B2: Ubiquitin Specific Peptidase 1 (USP1) (enzyme, UniProt Q8BJQ2 1-784)
chain: MPGVIPSESNGLSRGSPSKKNRLSLKFFQKKETKRALDFTDSQENEEKTSEYRGSEIDQVVPAAQSSPVSCEKRENLLPFVGLNNLGNTCYLNSILQVLYFCPGFKTGVKHLFNIISRKKEALKDDSNQKDKGSCKEESLASYELICSLQSLIISVEQLQASFLLNPEKYTDELATQPRRLLNTLRELNPMYEGFLQHDAQEVLQCILGNIQETCQLLKKEEIKNLAELSGKVEEQSLQKEETGGITSTEIDSMRNTEDVKEQLPKGNWKRKSDSESSNVKKKVKLSRESQPLEENQRQTRSKRKAIGDTLEAAPKIIPKCVSESESAKPSQKKSKVKINWLKPSTKQPSILSKFCSLGKITTNQRSKGQPKEKEGDVEEDLEKYGSDHTANGGPESPGSSVTPVDSSEAKSGNKGAEQIGFELVEKLFQGQLVLRTRCLECESLTERREDFQDISVPVQEDELSKVEESSEISPEPKTEMKTLRWAISQFASVERIVGEDKYFCENCHHYTEAERSLLFDKMPEVITIHLKCFAASGLEFDCYGGGLSKINTPLLTPLKLSLEEWSTKPTNDSYGLFAVVMHSGITISSGHYTASVKVTDLNSLELDEGNFVVDQMCELGKPEPLTEEQARGTAGNYDDEVSIRVGGNAQPSKVLNKKNVEGIGLLGGQKSKADYELYNKASNPDKVVGTPFTDNRNSETNDTTNGTHESDRNKESSDQTGVNMNGLENKISYVVQSLKEYEGKWLLFDDSEVKVTEEKDFLNSLSPSTSPTSTPYLLFYKKL
With B2, the binding entry in test [2] was “no binding”.

For the origin of these results see PMC12005740.
